Measurements reported in the supplement of paper PMC11732987, “Enantioselective OTUD7B fragment discovery through chemoproteomics screening and high-throughput optimisation” (Communications Chemistry, 2025).
The other results are listed elsewhere or left out. The data scatter; read single values as rough.

The chains behind the UniProt entries cited, without tags or fusion partners. Where a name states a change or a piece, a line headed by the entry shows the natural chain unless it says otherwise. Residues count along the entry.
UniProt Q9BXP5: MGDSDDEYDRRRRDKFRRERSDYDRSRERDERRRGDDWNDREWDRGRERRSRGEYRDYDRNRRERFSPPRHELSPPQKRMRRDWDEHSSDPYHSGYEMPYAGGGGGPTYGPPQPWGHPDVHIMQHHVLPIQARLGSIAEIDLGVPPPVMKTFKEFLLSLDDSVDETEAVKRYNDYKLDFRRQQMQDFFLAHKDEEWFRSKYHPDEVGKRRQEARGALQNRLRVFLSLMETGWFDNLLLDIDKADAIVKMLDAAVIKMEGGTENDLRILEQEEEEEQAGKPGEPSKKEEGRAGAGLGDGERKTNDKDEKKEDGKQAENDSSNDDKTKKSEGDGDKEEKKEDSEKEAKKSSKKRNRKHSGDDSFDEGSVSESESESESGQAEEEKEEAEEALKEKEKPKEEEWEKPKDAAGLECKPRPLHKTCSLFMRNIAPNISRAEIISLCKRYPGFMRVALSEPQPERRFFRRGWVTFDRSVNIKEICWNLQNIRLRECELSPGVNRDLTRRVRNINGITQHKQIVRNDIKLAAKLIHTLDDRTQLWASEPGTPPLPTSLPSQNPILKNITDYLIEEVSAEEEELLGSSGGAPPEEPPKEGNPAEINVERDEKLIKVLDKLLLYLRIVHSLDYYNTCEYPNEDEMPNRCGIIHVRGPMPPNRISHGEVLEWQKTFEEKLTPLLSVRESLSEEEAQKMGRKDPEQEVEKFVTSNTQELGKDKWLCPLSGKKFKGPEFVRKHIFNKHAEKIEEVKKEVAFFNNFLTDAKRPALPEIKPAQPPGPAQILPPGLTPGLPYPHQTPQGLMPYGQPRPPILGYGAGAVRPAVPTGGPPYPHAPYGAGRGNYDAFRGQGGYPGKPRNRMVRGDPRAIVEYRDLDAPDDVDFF
UniProt Q69YQ0, 77-97: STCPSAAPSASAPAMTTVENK
UniProt Q15526: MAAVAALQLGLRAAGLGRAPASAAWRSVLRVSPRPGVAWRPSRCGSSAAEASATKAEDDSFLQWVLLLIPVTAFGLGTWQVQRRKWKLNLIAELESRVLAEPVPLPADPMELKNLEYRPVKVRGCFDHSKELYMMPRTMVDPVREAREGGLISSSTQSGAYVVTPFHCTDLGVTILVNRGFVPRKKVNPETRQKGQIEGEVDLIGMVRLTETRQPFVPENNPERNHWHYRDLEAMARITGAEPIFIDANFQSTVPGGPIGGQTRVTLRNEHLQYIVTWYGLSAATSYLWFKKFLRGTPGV
UniProt Q658P3: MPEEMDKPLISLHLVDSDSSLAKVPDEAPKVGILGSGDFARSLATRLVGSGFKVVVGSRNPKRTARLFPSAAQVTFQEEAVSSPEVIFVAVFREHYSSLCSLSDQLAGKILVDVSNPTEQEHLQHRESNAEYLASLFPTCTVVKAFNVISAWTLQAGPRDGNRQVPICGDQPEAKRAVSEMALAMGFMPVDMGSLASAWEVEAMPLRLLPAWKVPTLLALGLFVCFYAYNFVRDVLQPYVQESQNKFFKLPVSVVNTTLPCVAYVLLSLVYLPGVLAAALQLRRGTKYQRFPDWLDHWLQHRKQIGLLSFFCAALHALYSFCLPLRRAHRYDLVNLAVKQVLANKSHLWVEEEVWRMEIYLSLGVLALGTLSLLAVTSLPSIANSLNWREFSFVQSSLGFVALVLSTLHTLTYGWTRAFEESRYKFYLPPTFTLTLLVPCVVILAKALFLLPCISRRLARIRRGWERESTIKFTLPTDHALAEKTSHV
UniProt Q96FJ0: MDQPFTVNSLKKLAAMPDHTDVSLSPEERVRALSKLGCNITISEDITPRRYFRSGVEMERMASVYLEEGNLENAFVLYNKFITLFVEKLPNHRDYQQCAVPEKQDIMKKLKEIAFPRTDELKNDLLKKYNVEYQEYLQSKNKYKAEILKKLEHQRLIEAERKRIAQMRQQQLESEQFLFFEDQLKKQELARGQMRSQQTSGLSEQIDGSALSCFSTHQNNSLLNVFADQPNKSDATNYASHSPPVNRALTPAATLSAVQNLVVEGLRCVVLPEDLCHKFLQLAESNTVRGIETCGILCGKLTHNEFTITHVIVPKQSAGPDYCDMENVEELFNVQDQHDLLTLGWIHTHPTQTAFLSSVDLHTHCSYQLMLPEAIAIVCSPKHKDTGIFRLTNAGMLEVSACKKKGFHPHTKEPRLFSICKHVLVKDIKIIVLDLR
UniProt Q9GZT4: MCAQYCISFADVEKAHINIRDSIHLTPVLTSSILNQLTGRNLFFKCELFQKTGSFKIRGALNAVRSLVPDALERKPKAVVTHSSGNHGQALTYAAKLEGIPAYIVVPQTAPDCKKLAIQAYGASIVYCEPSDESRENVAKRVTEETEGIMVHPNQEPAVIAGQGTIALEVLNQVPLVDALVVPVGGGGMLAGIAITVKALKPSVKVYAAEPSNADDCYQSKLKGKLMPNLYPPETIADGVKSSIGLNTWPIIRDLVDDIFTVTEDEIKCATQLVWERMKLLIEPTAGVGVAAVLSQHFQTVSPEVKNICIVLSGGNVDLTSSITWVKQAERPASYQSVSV
UniProt Q8N5C6: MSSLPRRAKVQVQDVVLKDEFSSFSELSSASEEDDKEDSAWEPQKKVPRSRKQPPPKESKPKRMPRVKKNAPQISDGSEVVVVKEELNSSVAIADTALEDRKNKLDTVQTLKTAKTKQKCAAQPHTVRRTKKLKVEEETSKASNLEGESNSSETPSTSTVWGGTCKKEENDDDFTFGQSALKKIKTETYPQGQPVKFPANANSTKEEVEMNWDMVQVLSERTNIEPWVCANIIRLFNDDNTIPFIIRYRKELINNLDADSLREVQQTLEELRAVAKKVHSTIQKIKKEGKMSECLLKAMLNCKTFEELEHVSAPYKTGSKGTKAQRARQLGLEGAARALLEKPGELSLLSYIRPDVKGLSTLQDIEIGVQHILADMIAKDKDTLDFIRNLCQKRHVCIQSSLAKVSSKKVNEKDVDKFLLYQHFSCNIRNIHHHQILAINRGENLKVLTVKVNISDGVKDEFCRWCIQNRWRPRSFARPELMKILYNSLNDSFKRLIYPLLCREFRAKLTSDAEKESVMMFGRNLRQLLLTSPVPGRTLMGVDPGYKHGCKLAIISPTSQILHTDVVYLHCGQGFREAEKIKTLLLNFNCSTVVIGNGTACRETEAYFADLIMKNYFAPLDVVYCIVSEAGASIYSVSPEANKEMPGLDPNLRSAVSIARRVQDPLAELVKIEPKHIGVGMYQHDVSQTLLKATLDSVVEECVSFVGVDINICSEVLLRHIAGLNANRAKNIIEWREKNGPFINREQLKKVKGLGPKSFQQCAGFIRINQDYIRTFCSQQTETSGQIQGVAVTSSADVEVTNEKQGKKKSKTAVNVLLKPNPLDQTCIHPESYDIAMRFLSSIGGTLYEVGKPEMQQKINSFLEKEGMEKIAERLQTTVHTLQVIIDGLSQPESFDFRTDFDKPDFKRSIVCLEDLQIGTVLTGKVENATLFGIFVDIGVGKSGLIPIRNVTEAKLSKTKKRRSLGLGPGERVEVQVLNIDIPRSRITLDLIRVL
UniProt O00186: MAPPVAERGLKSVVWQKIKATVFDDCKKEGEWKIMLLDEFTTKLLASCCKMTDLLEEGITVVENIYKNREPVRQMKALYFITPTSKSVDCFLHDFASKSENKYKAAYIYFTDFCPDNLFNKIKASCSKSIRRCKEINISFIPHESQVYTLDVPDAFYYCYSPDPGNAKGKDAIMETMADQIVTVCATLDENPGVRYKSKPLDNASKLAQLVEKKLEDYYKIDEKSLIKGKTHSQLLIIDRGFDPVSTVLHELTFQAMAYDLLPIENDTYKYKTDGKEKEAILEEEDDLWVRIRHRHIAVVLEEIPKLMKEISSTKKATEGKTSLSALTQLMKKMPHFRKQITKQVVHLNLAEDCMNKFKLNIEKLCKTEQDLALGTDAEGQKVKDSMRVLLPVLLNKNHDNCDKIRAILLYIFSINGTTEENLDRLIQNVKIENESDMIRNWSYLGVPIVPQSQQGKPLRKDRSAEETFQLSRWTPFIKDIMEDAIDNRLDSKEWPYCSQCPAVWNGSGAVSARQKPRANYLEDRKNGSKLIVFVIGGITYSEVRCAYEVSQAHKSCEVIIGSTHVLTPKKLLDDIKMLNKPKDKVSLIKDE
UniProt O43426, whole entry, looked up: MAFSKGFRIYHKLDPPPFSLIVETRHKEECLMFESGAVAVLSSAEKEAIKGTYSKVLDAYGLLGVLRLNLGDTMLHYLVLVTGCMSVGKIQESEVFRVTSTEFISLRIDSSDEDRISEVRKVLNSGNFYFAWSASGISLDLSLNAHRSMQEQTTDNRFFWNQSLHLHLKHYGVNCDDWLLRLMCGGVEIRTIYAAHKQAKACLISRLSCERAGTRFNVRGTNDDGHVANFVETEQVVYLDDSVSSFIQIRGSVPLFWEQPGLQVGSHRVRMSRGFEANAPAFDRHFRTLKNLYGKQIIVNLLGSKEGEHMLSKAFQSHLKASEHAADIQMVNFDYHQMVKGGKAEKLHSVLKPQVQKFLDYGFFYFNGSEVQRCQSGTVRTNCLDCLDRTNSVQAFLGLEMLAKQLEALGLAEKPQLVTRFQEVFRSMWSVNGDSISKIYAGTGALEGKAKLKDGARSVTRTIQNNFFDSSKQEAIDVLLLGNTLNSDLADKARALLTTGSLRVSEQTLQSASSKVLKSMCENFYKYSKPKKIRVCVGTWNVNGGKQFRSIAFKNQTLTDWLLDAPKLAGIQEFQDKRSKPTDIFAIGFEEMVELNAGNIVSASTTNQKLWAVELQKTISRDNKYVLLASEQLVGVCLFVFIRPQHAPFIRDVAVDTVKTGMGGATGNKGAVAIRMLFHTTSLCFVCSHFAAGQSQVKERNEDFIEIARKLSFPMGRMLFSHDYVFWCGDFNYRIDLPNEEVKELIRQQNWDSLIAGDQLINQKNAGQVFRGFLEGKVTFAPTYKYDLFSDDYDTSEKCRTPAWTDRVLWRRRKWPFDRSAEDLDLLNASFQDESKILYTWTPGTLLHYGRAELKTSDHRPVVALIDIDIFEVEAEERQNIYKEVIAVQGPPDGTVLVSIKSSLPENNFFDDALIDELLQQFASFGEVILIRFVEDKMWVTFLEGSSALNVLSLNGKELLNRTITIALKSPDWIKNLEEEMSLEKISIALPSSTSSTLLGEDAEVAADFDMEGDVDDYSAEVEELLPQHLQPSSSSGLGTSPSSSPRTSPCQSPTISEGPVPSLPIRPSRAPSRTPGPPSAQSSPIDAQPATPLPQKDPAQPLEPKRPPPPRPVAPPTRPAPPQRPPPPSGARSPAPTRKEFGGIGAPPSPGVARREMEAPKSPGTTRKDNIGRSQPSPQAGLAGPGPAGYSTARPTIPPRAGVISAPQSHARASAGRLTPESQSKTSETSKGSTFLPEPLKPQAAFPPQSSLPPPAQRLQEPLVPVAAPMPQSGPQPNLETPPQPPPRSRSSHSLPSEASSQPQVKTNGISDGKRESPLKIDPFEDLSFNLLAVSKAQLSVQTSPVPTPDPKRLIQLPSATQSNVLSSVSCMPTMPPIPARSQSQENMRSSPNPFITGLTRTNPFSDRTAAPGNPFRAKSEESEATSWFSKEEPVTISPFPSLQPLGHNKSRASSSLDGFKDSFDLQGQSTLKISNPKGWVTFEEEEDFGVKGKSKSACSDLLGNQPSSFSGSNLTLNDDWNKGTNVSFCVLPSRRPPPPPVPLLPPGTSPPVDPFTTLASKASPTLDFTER
UniProt Q9BUA3: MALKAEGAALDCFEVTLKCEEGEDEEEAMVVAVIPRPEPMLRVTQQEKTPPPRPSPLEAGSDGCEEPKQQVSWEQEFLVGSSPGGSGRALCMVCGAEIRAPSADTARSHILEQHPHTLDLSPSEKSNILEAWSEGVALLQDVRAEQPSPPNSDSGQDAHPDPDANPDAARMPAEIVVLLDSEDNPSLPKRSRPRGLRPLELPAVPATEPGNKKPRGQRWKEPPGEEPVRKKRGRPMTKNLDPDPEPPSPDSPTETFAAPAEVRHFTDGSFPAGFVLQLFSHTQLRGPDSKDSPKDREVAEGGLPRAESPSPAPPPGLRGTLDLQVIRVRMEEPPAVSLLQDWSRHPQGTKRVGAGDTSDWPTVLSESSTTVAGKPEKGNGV
UniProt Q9Y3F4: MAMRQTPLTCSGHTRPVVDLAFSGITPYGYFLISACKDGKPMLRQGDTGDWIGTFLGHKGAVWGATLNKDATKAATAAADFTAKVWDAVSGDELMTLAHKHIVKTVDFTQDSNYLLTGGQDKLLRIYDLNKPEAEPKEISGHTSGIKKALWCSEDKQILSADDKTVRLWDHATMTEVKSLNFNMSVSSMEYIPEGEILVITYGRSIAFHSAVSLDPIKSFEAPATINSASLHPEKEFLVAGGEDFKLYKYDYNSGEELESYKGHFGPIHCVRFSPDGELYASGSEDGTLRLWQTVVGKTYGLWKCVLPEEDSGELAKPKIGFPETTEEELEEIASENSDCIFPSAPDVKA

Each target was assayed with ClCC(=O)N[C@@H]1CCCc2ccccc12 (assay: log2 mean competition ratio of IA-DTB cysteine labelling (DMSO/compound) (log2 ratio); higher = stronger cysteine engagement by compound). Conditions: 50 µM; treatment time: 4 h; cell line lysate: HEK293T.
Experimental: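 IA-DTB competitive cysteine chemoproteomics in HEK293T RIPA lysate. Lysates were treated with compound 29 or 30 at 50 or 200 µM for 4 h, then IA-DTB (500 µM, 1 h), trypsin-digested, NeutrAvidin-enriched and analysed by diaPASEF. Competition ratio = intensity DMSO / intensity compound (n=4 treated, n=64 DMSO); binding: mean log2 CR ≥ 1 and p ≤ 0.05 plus QC filters. Target is the cysteine site.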

| Target | log2 mean competition ratio |
| --- | --- |
| SRRT C715 (UniProt Q9BXP5) | 0.39 |
| SPECC1L C79 (UniProt Q69YQ0) | -0.138 |
| SURF1 C125 (UniProt Q15526) | -0.00663 |
| SYNE2 C601 (UniProt Q8WXH0) | -0.172 |
| STAT6 C272 (UniProt P42226) | 0.339 |
| STEAP3 C140 (UniProt Q658P3) | 0.197 |
| STAMBPL1 C98 (UniProt Q96FJ0) | -0.208 |
| SPTAN1 C1930 (UniProt Q13813) | 0.00866 |
| SRR C217 (UniProt Q9GZT4) | -0.138 |
| SYK C259 (UniProt P43405) | 0.0113 |
| SRBD1 C229 (UniProt Q8N5C6) | 0.00877 |
| STXBP3 C557 (UniProt O00186) | -0.0859 |
| SPATS2L C351 (UniProt Q9NUQ6) | 0.186 |
| SYNJ1 C374 (UniProt O43426) | -0.193 |
| SPINT2 C38 | 0.137 |
| SPINDOC C12 (UniProt Q9BUA3) | 0.147 |
| SRGAP2 C486 | 0.0537 |
| STEEP1 C11 | -0.0821 |
| SUPT5H C740 (UniProt O00267) | -0.00125 |
| STRAP C152 (UniProt Q9Y3F4) | -0.276 |

Same assay, conditions: 200 µM; treatment time: 4 h; cell line lysate: HEK293T

| Target | log2 mean competition ratio |
| --- | --- |
| SRRT C715 (UniProt Q9BXP5) | 0.78 |
| SPECC1L C79 (UniProt Q69YQ0) | -0.0954 |
| SURF1 C125 (UniProt Q15526) | 0.0463 |
| SYNE2 C601 (UniProt Q8WXH0) | -0.0436 |
| STAT6 C272 (UniProt P42226) | 0.0798 |
| STEAP3 C140 (UniProt Q658P3) | -0.0508 |
| STAMBPL1 C98 (UniProt Q96FJ0) | -0.076 |
| SPTAN1 C1930 (UniProt Q13813) | -0.00336 |
| SRR C217 (UniProt Q9GZT4) | 0.0622 |
| SYK C259 (UniProt P43405) | -0.106 |
| SRBD1 C229 (UniProt Q8N5C6) | 0.00508 |
| STXBP3 C557 (UniProt O00186) | -0.117 |
| SPATS2L C351 (UniProt Q9NUQ6) | -0.049 |
| SYNJ1 C374 (UniProt O43426) | 0.0687 |
| SPINT2 C38 | 0.793 |
| SPINDOC C12 (UniProt Q9BUA3) | -0.306 |
| SRGAP2 C486 | 0.197 |
| STEEP1 C11 | -0.0311 |
| SUPT5H C740 (UniProt O00267) | -0.00889 |
| STRAP C152 (UniProt Q9Y3F4) | -0.149 |
